{"source": "PubChem BioAssay AID1347423", "about": "(Functional Genomics Laboratory (NCATS/FGL), 2020)", "note": "Hit rate of the full screen: of about 52,000 sequences, about 210 (0.4%) were called active.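 How the source made its calls: active means gene whose silencing raises cell survival under the drug, median off-target-corrected z-score across its silencing RNAs 2 or more; inactive means the rest.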 The list shows a part of the results.", "data": [{"assay": "Resistance to Poly (ADP-Ribose) Polymerase inhibitor: Gene Identification via Genome-wide siRNA Screen", "conditions": "mouse BRCA2 R2336H ES cells, olaparib, CellTiter-Glo viability; hits give high values", "procedure,_shortened": "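Genome-wide siRNA screen (3 siRNAs/gene, 20 nM) in mouse ES cells carrying hypomorphic BRCA2 R2336H; olaparib 500 nM added 48 h post-transfection, CellTiter-Glo viability 72 h later. Normalized to plate-median negative control; MAD z-scores, gene median, seed-adjusted.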", "values": [{"sequence": "GGGAAAUCUACUUUGCGUATT against Khdrbs3", "z-score": "inactive: 1.32"}, {"sequence": "CACGCGUCGGCGCAGACUCTT against Hmx2", "z-score": "inactive: -3.06"}, {"sequence": "GCCUGCACUGAAGUUCAAUTT against Sod2", "z-score": "inactive: -1.54"}, {"sequence": "GGACGAGCUGUAUUUGAAUTT against Gsk3a", "z-score": "inactive: 0.179"}, {"sequence": "GGCAUGUUCCUCAUAUGCCTT against Lrrc21", "z-score": "inactive: -0.376"}, {"sequence": "GGAAGCUGAUGAGAAUUACTT against Stx4a", "z-score": "inactive: 1.89"}, {"sequence": "GGAAUCCUGAUGGUGAUGATT against Mttp", "z-score": "inactive: 1.02"}, {"sequence": "GGUCCUAGUCUUUCAGAUGTT against 4930465P12Rik", "z-score": "inactive: -1.76"}, {"sequence": "GGUACCAACGUGUAUGGCATT against Gpaa1", "z-score": "inactive: -2.05"}, {"sequence": "GGGUCAGGAAAAACAGCGATT against Slc15a1", "z-score": "inactive: 0.151"}, {"sequence": "GGAAAAAAAAGACCUAGGATT against 1500004A08Rik", "z-score": "inactive: 0.238"}, {"sequence": "GGAUGCUGAGUUUCUGCCATT against Bre", "z-score": "inactive: 0.0658"}, {"sequence": "GGCCUUCUAAAGCUGUGAUTT against 6330403K07Rik", "z-score": "inactive: 0.00546"}, {"sequence": "CCGAUACUUGAACUCUUUUTT against Ctso", "z-score": "inactive: -1.26"}, {"sequence": "GCGGCAACAUUCAAAGUGGTT against Itgb2l", "z-score": "inactive: 0.333"}, {"sequence": "GCCUUUAGGUGUCAGUCCUTT against 1200003I07Rik", "z-score": "inactive: -0.726"}, {"sequence": "GGACCUACGUCUUGUCUCCTT against Greb1", "z-score": "inactive: 1.25"}, {"sequence": "GGCAGAAGCAAUGAACUAUTT against Npm1", "z-score": "active: 3.59"}, {"sequence": "CGAACACUAAGCUUUGAUATT against Rab11fip2", "z-score": "inactive: 0.139"}, {"sequence": "GCUUCAAGCCAUCCGAAUATT against 4931428D14Rik", "z-score": "inactive: -0.944"}, {"sequence": "CCUAAUAACUGGACUUUAGTT against Spats2", "z-score": "inactive: -0.669"}, {"sequence": "GGGAAGGAAACCUAGUAAATT against Peg12", "z-score": "inactive: 0.775"}, {"sequence": "GGAGGUCAGACCAGUUUACTT against Htr3b", "z-score": "inactive: 0.117"}, {"sequence": "GCCUGGAAUGCAGAAUCGATT against Amaco", "z-score": "inactive: -0.132"}, {"sequence": "CCAGCUCAAGCUUUCCACATT against Olfr1105", "z-score": "inactive: -0.503"}, {"sequence": "CGGAAGAAUAAAAACCGGCTT against 2310005N01Rik", "z-score": "inactive: -0.544"}, {"sequence": "CCACUUACGAGGGCAUUUUTT against A2lp", "z-score": "inactive: -0.833"}, {"sequence": "GGUGGUUAUGAAACUAUCUTT against Jarid1c", "z-score": "inactive: 0.869"}, {"sequence": "GGUUGAAAAUGUUGAUCGUTT against Rhoe", "z-score": "inactive: 0.628"}]}]}
